≈ marks a conversion by molar mass, not a printed value.
Tested on: T. cruzi (amastigotes, Tulahuen C4 strain)
Assay: In vitro activity against T. cruzi amastigotes (Tulahuen C4)
Format: cell-based
Details: Trypanosoma cruzi, Table 1, only one replicate, read-out: IC50 Tcr (crude extracts)

Structure (SMILES): O=C(Cn1ccnc1[N+](=O)[O-])NCc1ccccc1 [benznidazole]
- IC50: 0.382 µg/mL (≈ 1.47 µM)
